Experimental findings from publication PMC10077477 are described below.

Protein sequences, listed by entry. Tags and fused reporters are not part of them. Lines headed by an entry give the natural chain unless they say otherwise; changes in a name come on top.
UniProt O00506: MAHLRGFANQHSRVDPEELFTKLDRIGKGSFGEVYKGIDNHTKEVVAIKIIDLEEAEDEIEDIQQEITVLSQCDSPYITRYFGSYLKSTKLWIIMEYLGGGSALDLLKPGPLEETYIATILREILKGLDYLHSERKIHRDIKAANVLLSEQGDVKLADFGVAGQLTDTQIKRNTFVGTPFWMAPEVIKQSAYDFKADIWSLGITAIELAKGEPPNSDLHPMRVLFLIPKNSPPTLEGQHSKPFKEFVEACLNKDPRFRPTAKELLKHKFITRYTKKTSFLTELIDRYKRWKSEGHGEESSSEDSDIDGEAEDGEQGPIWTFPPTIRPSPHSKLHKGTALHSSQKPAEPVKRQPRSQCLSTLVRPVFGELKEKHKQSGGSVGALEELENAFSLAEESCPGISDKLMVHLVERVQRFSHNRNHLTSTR
UniProt Q9BSQ5: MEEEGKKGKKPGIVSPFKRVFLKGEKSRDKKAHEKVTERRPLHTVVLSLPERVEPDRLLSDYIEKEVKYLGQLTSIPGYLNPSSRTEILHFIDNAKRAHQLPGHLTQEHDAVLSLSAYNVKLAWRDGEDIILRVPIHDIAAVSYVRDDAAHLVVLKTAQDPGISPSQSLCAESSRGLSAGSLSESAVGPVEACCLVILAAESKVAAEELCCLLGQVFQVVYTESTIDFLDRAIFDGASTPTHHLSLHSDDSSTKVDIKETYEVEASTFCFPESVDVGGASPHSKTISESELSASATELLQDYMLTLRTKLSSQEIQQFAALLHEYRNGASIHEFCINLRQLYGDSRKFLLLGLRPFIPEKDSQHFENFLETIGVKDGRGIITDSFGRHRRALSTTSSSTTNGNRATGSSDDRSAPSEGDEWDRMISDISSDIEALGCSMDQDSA

Results are given in words; binding and its absence hold for the method and conditions named. In cells and extracts the contact can be indirect. Some entries that bind do so weakly or less than the wild type. Tags and fused reporters may be left off the sequences shown.

Assay [1] addresses Flag-tagged N-STK25(1-302)/C-CCM2(290-445) (UniProt O00506). Put plainly: co-IP; HEK293 cells transfected for 48 hours, lysed with immunoprecipitation assay buffer, pulldown with anti-Flag antibody affinity gel, eluted proteins analysed by Western blot. A general note: In western blotting, separated proteins are transferred to a membrane and probed.
Assay [2] deals with Flag-CCM2 (UniProt Q9BSQ5). Described as above.

B1: Myc-MEKK3 (enzyme, UniProt Q99759 1-626)
chain: MDEQEALNSIMNDLVALQMNRRHRMPGYETMKNKDTGHSNRQSDVRIKFEHNGERRIIAFSRPVKYEDVEHKVTTVFGQPLDLHYMNNELSILLKNQDDLDKAIDILDRSSSMKSLRILLLSQDRNHNSSSPHSGVSRQVRIKASQSAGDINTIYQPPEPRSRHLSVSSQNPGRSSPPPGYVPERQQHIARQGSYTSINSEGEFIPETSEQCMLDPLSSAENSLSGSCQSLDRSADSPSFRKSRMSRAQSFPDNRQEYSDRETQLYDKGVKGGTYPRRYHVSVHHKDYSDGRRTFPRIRRHQGNLFTLVPSSRSLSTNGENMGLAVQYLDPRGRLRSADSENALSVQERNVPTKSPSAPINWRRGKLLGQGAFGRVYLCYDVDTGRELASKQVQFDPDSPETSKEVSALECEIQLLKNLQHERIVQYYGCLRDRAEKTLTIFMEYMPGGSVKDQLKAYGALTESVTRKYTRQILEGMSYLHSNMIVHRDIKGANILRDSAGNVKLGDFGASKRLQTICMSGTGMRSVTGTPYWMSPEVISGEGYGRKADVWSLGCTVVEMLTEKPPWAEYEAMAAIFKIATQPTNPQLPSHISEHGRDFLRRIFVEARQRPSAEELLTHHFAQLMY
Regarding B1, the binding result in assay [1] and in assay [2] was “binds” each time.
